## Results from one PubChem assay

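Luminescence from an EWS-FLI1 target-promoter (NR0B1) reporter, set against a CMV-promoter reporter, two days after silencing single genes in TC32 Ewing sarcoma cells.
Each siRNA was applied at 20 nM.
A z-score of the log NR0B1-over-CMV signal, less the median of siRNAs with the same seed; more negative means a stronger specific loss of the NR0B1 reporter.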

The strongest results of the screen are mostly left out here.
Sequences are the guide (antisense) strand, without overhang.

strand,gene,seed-corrected z-score
AUAAGAAGAGACGAUGUCC,HEXA,-0.2456
UUCAGCACGUUUUUGCACU,AURKAIP1,0.6077
UACUACGCAAUAUAGAUGG,PPP4R3B,0.2101
UCAGAGCCCACAGUUAGGA,OR10S1,-0.656
UUCGUUAGCAAUCCGAGUC,RIIAD1,-0.5679
AAGGGCUCCAGUGAUGAUG,CHN2,0.4915
UUAUUGAGACCGAUCAGAC,PGAM1P4,0.3554
UCCCUUUCAAGUUCCGUCG,LOC728147,0.1781
UGGGUUUCACUAGUCUUCC,MAFF,0.2039
UAAGAGAAAAUUAUUCCAG,OR7G1,0.002115
UAAAGGCUAAGGGUGAGGC,TTLL10,0.4295
AAUAAUCCAAAGCAUAUGC,PANK2,-0.717
AUCGUUCACAUCUAUAUCG,TMCC1,0.4806
AAAGGUGGUAGAUUCAUUC,DNTTIP1,-0.6419
UCUGUGGUGUGGAUCCUCU,ZNF324B,-0.7101
AACUCGAUAUUGAAGGUGG,DRD3,0.0417
UUAAGUCCCAGAGAUCCUG,HYLS1,-1.399
CUUCUGAACUCUCUGCUCC,MXRA7,-0.7898
AAAGAGACGAAUAAUGAGU,RTN3,0.4152
UUCGCCUCGAUUCUGAAUG,PTCHD3P1,0.3911
UUUACGUUCACUAACAAAG,SPATS2,0.9958
UUUUAUCACAUUGUAACAG,SFR1P2,0.2431
UGUCUAUGCAGAUCUGGGC,COL6A1,0.4198
UUUGGUUCAGUCGCCGCUU,SHISA9,-0.274
UCUCUUUUUGGAUGCGUUC,ARL13B,-0.2605
UAUCCGAUUUGGAUCUUUG,HFM1,-0.393
UAAUGGAGCCUAGUCCUCC,ARPC5L,-0.3814
AACUGAAAGAGUCAGGCCC,PSD,-0.02708
UUCGUGAAUGGAUCCGAGG,EPS15L1,-0.05292
UUGUUCUCUAGGUAGAGCC,CCAR2,0.7001
UUGCGAUCGAUGUUCAUGG,EHMT2,0.2988
UCACAUGCAUUGGUUGUGG,KRT33A,0.5651
AUACUCGAAAGCUUAAUUG,CYP7B1,0.04455
UUUUCGACUACUGGAAAUC,CD46,0.2769
UAACUCCGAACUGCGUUGC,CADPS2,0.3675
UGAGAGAUUGUUCCUCGGC,RASGRP4,0.003708
UAAUAAACUAUUGUUAACC,BLOC1S5,-0.344
AAAGUGUCAUUGAAGGAUG,RPS14,1.029
UAAGUGGUUUAGUAUGUCU,SETD6,1.044
UGCUGGGAUCCUGAUAGGC,RIN1,-0.409
AGACGUGUGAUCUUGUUGC,HSFX2,0.1711
AUCCAAAUCCUUAUCCACC,SOX11,0.2973
UAGCUAUAAACCACCACAU,ERCC2,0.008626
AUUGUACCCUCAGGCAUGG,RPL8,-1.172
UAAGAUCUGAGGUCUGUAU,NHLH1,-1.276
UUAUUAUCCAAACCACCAC,GNB5,0.2276
AGAGAGAAGAUCAAGAUGA,SLC35C2,0.2211
UAUCGUUCGGUGGAGUUAG,B3GNTL1,0.4809
UGAUUUCUGAGAACUCCUC,SLC16A2,1.642
AACACUUUAACACAGGCUG,CD164L2,-1.213
UAGAUAUACAGCACCAAGG,FGD1,-0.395
UAGAUUCAUAUGGUCAUGG,LIPT1,0.06633
UUUAACUGAUGGUUACACU,CHCHD2,0.3313
UAGGUUUUAUAGGCAUCGC,PRSS58,-1.494
UGCUAUAUUUGUUAAUGCC,KPNA5,0.4708

Repeated from the top, 7 entries:

{"strand": "AUAAGAAGAGACGAUGUCC", "gene": "HEXA", "seed-corrected z-score": "-0.2456"}
{"strand": "UUCAGCACGUUUUUGCACU", "gene": "AURKAIP1", "seed-corrected z-score": "0.6077"}
{"strand": "UACUACGCAAUAUAGAUGG", "gene": "PPP4R3B", "seed-corrected z-score": "0.2101"}
{"strand": "UCAGAGCCCACAGUUAGGA", "gene": "OR10S1", "seed-corrected z-score": "-0.656"}
{"strand": "UUCGUUAGCAAUCCGAGUC", "gene": "RIIAD1", "seed-corrected z-score": "-0.5679"}
{"strand": "AAGGGCUCCAGUGAUGAUG", "gene": "CHN2", "seed-corrected z-score": "0.4915"}
{"strand": "UUAUUGAGACCGAUCAGAC", "gene": "PGAM1P4", "seed-corrected z-score": "0.3554"}

Source: PubChem BioAssay AID1159506 (NCATS, 2015).